Source: the supplement of paper PMC4604168 (melanoma cell lines)
Some of the results follow. Repeats are few or missing, and single values can be far off.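 Imaging used 1,536-well plates; nuclei positive for cleaved PARP by antibody were divided by total DNA-stained nuclei to yield the apoptosis fraction. Doses for screening kept most cells viable, and cell lines differ markedly in resting and induced cleaved-PARP levels.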

Legend:
Experiment in all cases: cleaved PARP positive nuclei fraction relative to DMSO control; melanoma cells; higher = more apoptosis
Conditions in all cases: library dose: low library concentration; 72 h
[1] = tested on: MeWo
[2] = tested on: RPMI7951
[3] = tested on: RVH-421
[4] = tested on: SkMel28
[5] = tested on: SkMel2
[6] = tested on: SkMel30
[7] = tested on: SkMel5
[8] = tested on: UACC257
[9] = tested on: UACC62
[10] = tested on: WM115
[11] = tested on: WM1716
[12] = tested on: WM1745
[13] = tested on: WM3526
[14] = tested on: WM3619
[15] = tested on: WM451Lu
[16] = tested on: MZ2-MEL

Structure (SMILES) | cleaved PARP positive nuclei fraction [1] [%] | cleaved PARP positive nuclei fraction [2] [%] | cleaved PARP positive nuclei fraction [3] [%] | cleaved PARP positive nuclei fraction [4] [%] | cleaved PARP positive nuclei fraction [5] [%] | cleaved PARP positive nuclei fraction [6] [%] | cleaved PARP positive nuclei fraction [7] [%] | cleaved PARP positive nuclei fraction [8] [%] | cleaved PARP positive nuclei fraction [9] [%] | cleaved PARP positive nuclei fraction [10] [%] | cleaved PARP positive nuclei fraction [11] [%] | cleaved PARP positive nuclei fraction [12] [%] | cleaved PARP positive nuclei fraction [13] [%] | cleaved PARP positive nuclei fraction [14] [%] | cleaved PARP positive nuclei fraction [15] [%] | cleaved PARP positive nuclei fraction [16] [%]
O=C(O)c1ccc2c(c1)nc(Nc1cccc(Cl)c1)c1ccncc12 + C=CCn1c(=O)c2cnc(Nc3ccc(N4CCN(C)CC4)cc3)nc2n1-c1cccc(C(C)(C)O)n1 [MK1775] (first compound 0.4 µM, partner dose 0.02 µM) | 53.7 | 97.6 | 104 | 128 | 125 | 76.9 | 161 | 37.4 | 113 | 79.2 | 273 | 102 | 63 | 142 | 118 | 
CO[C@H]1C[C@@H]2CC[C@@H](C)[C@@](O)(O2)C(=O)C(=O)N2CCCC[C@H]2C(=O)O[C@H]([C@H](C)C[C@@H]2CC[C@@H](OCCO)[C@H](OC)C2)CC(=O)[C@H](C)/C=C(\C)[C@@H](O)[C@@H](OC)C(=O)[C@H](C)C[C@H](C)/C=C/C=C/C=C/1C [everolimus] + C=CCNC1=C2C[C@@H](C)C[C@H](OC)[C@H](O)[C@@H](C)/C=C(\C)[C@H](OC(N)=O)[C@@H](OC)/C=C\C=C(/C)C(=O)NC(=CC1=O)C2=O [Tanespimycin] (first compound 0.02 µM, partner dose 0.002 µM) | 140 | 137 | 126 | 143 |  | 163 |  |  | 161 | 79.6 | 88.7 | 133 | 69.6 | 115 | 118 | 152
O=C(O)c1ccc2c(c1)nc(Nc1cccc(Cl)c1)c1ccncc12 + Cc1cc([N+](=O)[O-])ccc1NS(=O)(=O)c1cc(Cl)ccc1Cl [FH535] (first compound 0.4 µM, partner dose 1 µM) | 28.4 | 60.2 | 31.1 | 79.3 | 76.3 | 30.6 | 81 | 115 | 180 | 60.1 | 110 | 92.7 | 89 | 77.2 | 61.3 | 
Cn1c(=O)n(-c2ccc(C(C)(C)C#N)cc2)c2c3cc(-c4cnc5ccccc5c4)ccc3ncc21 + O=C(O)[C@@H]1[O][Sb](=[O])([O][Sb]2(=[O])[O][C@H]([C@H](O)CO)[C@H](O)[C@H](C(=O)O)[O]2)[O][C@H]([C@H](O)CO)[C@@H]1O [stibogluconate] (first compound 0.004 µM, partner dose 2 µM) | 108 | 107 | 99 | 152 | 108 | 640 |  |  | 40.1 | 90.7 | 64.4 | 88.5 | 80.6 | 78.1 | 494 | 
Cn1c(=O)n(-c2ccc(C(C)(C)C#N)cc2)c2c3cc(-c4cnc5ccccc5c4)ccc3ncc21 + COc1ccc(-c2ccc3c(N4CCOCC4)nc(N4C[C@@H](C)O[C@@H](C)C4)nc3n2)cc1CO [KU0063794] (first compound 0.004 µM, partner dose 0.02 µM) | 46.9 | 72.6 | 95.2 | 310 | 235 | 29.3 | 70.5 | 149 | 154 | 43.2 | 99.7 | 89.3 | 73.3 | 147 | 76.5 | 
O=C(O)[C@@H]1[O][Sb](=[O])([O][Sb]2(=[O])[O][C@H]([C@H](O)CO)[C@H](O)[C@H](C(=O)O)[O]2)[O][C@H]([C@H](O)CO)[C@@H]1O (stereo partly specified) [stibogluconate] + COc1cc2ncnc(Nc3ccc(Oc4ccccc4)cc3)c2cc1OC [SrcI1] (first compound 2 µM, partner dose 2 µM) | 40.2 | 132 | 64.5 | 36.2 | 70.7 | 54.4 | 67.6 | 51.3 | 89.2 | 92.8 | 84.5 | 101 | 76.3 | 79.3 | 189 | 
CO[C@H]1C[C@@H]2CC[C@@H](C)[C@@](O)(O2)C(=O)C(=O)N2CCCC[C@H]2C(=O)O[C@H]([C@H](C)C[C@@H]2CC[C@@H](OCCO)[C@H](OC)C2)CC(=O)[C@H](C)/C=C(\C)[C@@H](O)[C@@H](OC)C(=O)[C@H](C)C[C@H](C)/C=C/C=C/C=C/1C [everolimus] + COc1ccc(Cl)c(Nc2nc3ccccc3nc2NS(=O)(=O)c2cccc(NC(=O)C(C)(C)N)c2)c1 [XL147] (first compound 0.02 µM, partner dose 0.8 µM) | 462 | 109 | 97.2 | 160 |  | 21.3 |  |  | 448 | 52 | 123 | 93.7 | 98.1 | 107 | 62.1 | 79.6
Cc1cc(Nc2cc(N3CCN(C)CC3)nc(/C=C/c3ccccc3)n2)n[nH]1 + CO[C@H]1C[C@@H]2CC[C@@H](C)[C@@](O)(O2)C(=O)C(=O)N2CCCC[C@H]2C(=O)O[C@H]([C@H](C)C[C@@H]2CC[C@@H](OCCO)[C@H](OC)C2)CC(=O)[C@H](C)/C=C(\C)[C@@H](O)[C@@H](OC)C(=O)[C@H](C)C[C@H](C)/C=C/C=C/C=C/1C [everolimus] (first compound 0.04 µM, partner dose 0.02 µM) | 99.5 | 85.3 | 112 | 508 |  | 124 |  |  | 257 | 94.6 | 238 | 95.8 | 60.6 | 232 | 151 | 104
O=C(O)[C@@H]1[O][Sb](=[O])([O][Sb]2(=[O])[O][C@H]([C@H](O)CO)[C@H](O)[C@H](C(=O)O)[O]2)[O][C@H]([C@H](O)CO)[C@@H]1O (stereo partly specified) [stibogluconate] + Cn1cncc1[C@@](N)(c1ccc(Cl)cc1)c1ccc2c(c1)c(-c1cccc(Cl)c1)cc(=O)n2C [tipifarnib] (first compound 2 µM, partner dose 0.01 µM) | 49.6 | 84.6 | 218 | 56.7 | 122 | 107 | 62.7 | 123 | 61.6 | 233 | 165 | 82.8 | 61.6 | 214 | 406 | 
CC(C)C[C@H](NC(=O)[C@H](Cc1ccccc1)NC(=O)c1cnccn1)B(O)O [Bortezomib] + Clc1ccc(Nc2nnc(Cc3ccncc3)c3ccccc23)cc1 [vatalanib] (first compound 0.001 µM, partner dose 2 µM) | 117 | 305 | 247 | 77.3 | 104 | 73.7 |  |  | 57 | 73.5 | 622 | 182 | 84.3 | 848 | 95.4 | 
O=C(O)[C@@H]1[O][Sb](=[O])([O][Sb]2(=[O])[O][C@H]([C@H](O)CO)[C@H](O)[C@H](C(=O)O)[O]2)[O][C@H]([C@H](O)CO)[C@@H]1O (stereo partly specified) [stibogluconate] + Clc1ccc(Nc2nnc(Cc3ccncc3)c3ccccc23)cc1 [vatalanib] (first compound 2 µM, partner dose 2 µM) | 65.2 | 42.5 | 50.4 | 111 |  | 41.8 |  |  | 80.9 | 82.3 | 70.6 | 99.9 | 71.4 | 85.1 | 81.5 | 106
CN1CCN(c2ccc3nc(-c4c(N)c5c(F)cccc5[nH]c4=O)[nH]c3c2)CC1 [Dovitinib] + O=S(=O)(c1ccccc1)N(CC(F)(F)F)c1ccc(C(O)(C(F)(F)F)C(F)(F)F)cc1 [T0901317] (first compound 0.1 µM, partner dose 1.4 µM) | 33.7 | 95.6 | 170 | 129 | 52.1 | 28.4 | 85.1 | 67.5 | 132 | 115 | 33 | 254 | 103 | 85.9 | 33 | 
O=C(O)[C@@H]1[O][Sb](=[O])([O][Sb]2(=[O])[O][C@H]([C@H](O)CO)[C@H](O)[C@H](C(=O)O)[O]2)[O][C@H]([C@H](O)CO)[C@@H]1O (stereo partly specified) [stibogluconate] + O=S(=O)(c1ccccc1)N(CC(F)(F)F)c1ccc(C(O)(C(F)(F)F)C(F)(F)F)cc1 [T0901317] (first compound 2 µM, partner dose 1.4 µM) | 97.9 | 35.7 | 41 | 111 | 65.5 | 48.6 | 70.5 | 131 | 117 | 130 | 146 | 113 | 150 | 86.1 | 42.5 | 
C[C@@H](Oc1cc(-c2cnn(C3CCNCC3)c2)cnc1N)c1c(Cl)ccc(F)c1Cl [Crizotinib] + O=C(Nc1ccccc1)c1cc([N+](=O)[O-])ccc1Cl [GW9662] (first compound 0.2 µM, partner dose 2 µM) | 53.4 | 129 | 96.7 | 89.4 | 103 | 55.7 | 78.4 | 78.4 | 56.6 | 68.1 | 125 | 98.1 | 202 | 96.9 | 183 | 
CO[C@H]1C[C@@H]2CC[C@@H](C)[C@@](O)(O2)C(=O)C(=O)N2CCCC[C@H]2C(=O)O[C@H]([C@H](C)C[C@@H]2CC[C@@H](OCCO)[C@H](OC)C2)CC(=O)[C@H](C)/C=C(\C)[C@@H](O)[C@@H](OC)C(=O)[C@H](C)C[C@H](C)/C=C/C=C/C=C/1C [everolimus] + C=C(c1ccc(C(=O)O)cc1)c1cc2c(cc1C)C(C)(C)CCC2(C)C [Bexarotene] (first compound 0.02 µM, partner dose 2 µM) | 46.1 | 247 | 64.5 | 419 |  | 56.1 |  |  | 425 | 165 | 72.1 | 105 | 71.4 | 102 | 234 | 186

2 entries from above, set out differently.
Structure (SMILES),cleaved PARP positive nuclei fraction [1] [%],cleaved PARP positive nuclei fraction [2] [%],cleaved PARP positive nuclei fraction [3] [%],cleaved PARP positive nuclei fraction [4] [%],cleaved PARP positive nuclei fraction [5] [%],cleaved PARP positive nuclei fraction [6] [%],cleaved PARP positive nuclei fraction [7] [%],cleaved PARP positive nuclei fraction [8] [%],cleaved PARP positive nuclei fraction [9] [%],cleaved PARP positive nuclei fraction [10] [%],cleaved PARP positive nuclei fraction [11] [%],cleaved PARP positive nuclei fraction [12] [%],cleaved PARP positive nuclei fraction [13] [%],cleaved PARP positive nuclei fraction [14] [%],cleaved PARP positive nuclei fraction [15] [%],cleaved PARP positive nuclei fraction [16] [%]
"CC(C)C[C@H](NC(=O)[C@H](Cc1ccccc1)NC(=O)c1cnccn1)B(O)O [Bortezomib] + Clc1ccc(Nc2nnc(Cc3ccncc3)c3ccccc23)cc1 [vatalanib] (first compound 0.001 µM, partner dose 2 µM)",117,305,247,77.3,104,73.7,,,57,73.5,622,182,84.3,848,95.4,
"O=C(O)[C@@H]1[O][Sb](=[O])([O][Sb]2(=[O])[O][C@H]([C@H](O)CO)[C@H](O)[C@H](C(=O)O)[O]2)[O][C@H]([C@H](O)CO)[C@@H]1O (stereo partly specified) [stibogluconate] + Clc1ccc(Nc2nnc(Cc3ccncc3)c3ccccc23)cc1 [vatalanib] (first compound 2 µM, partner dose 2 µM)",65.2,42.5,50.4,111,,41.8,,,80.9,82.3,70.6,99.9,71.4,85.1,81.5,106
